Some of the results follow.
Tests used:
Assay in all cases: log2 fold change, soluble protein after heating vs DMSO (PISA); higher = thermal stabilisation; K562 lysate, 10 uM; active = over 0.2 and 3.5 SD of the protein, either way, in both replicates (recomputed)
[1] = compound: C#Cc1cccc(Nc2ncnc3cc(OCCOC)c(OCCOC)cc23)c1 [erlotinib]
Procedure, shortened: (§1)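 Soluble protein was defined as the supernatant remaining after 21,000xg for 90 min, following pooling of heated aliquots and adjustment to 0.5% NP-40 at 4°C. Before that, crude K562 extract at 1 mg/mL protein in PBS pH 7.4 with 1 mM MgCl2 was treated with 10 μM compound for 30 min and heated for 3 min across 48°C-58°C. Quantification used TMTpro 16plex LC-MS/MS with channel sums equalised, and values are log-two fold changes in thermal stability relative to solvent controls from duplicates.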

Sequences of proteins named here, by UniProt entry; tags and fusion partners are left off. A change or cut given only in a name is not applied to a line headed by its entry.
UniProt Q8WTR2: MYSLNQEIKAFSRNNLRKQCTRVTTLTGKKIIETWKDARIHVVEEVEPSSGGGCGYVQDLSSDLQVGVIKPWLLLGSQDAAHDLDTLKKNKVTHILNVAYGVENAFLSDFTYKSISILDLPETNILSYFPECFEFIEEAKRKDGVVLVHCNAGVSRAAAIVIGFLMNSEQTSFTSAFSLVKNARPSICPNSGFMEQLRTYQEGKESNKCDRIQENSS
UniProt P51808: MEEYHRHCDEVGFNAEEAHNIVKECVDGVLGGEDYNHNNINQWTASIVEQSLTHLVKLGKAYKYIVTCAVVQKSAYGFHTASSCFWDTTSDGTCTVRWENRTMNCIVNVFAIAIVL
UniProt Q9UII6: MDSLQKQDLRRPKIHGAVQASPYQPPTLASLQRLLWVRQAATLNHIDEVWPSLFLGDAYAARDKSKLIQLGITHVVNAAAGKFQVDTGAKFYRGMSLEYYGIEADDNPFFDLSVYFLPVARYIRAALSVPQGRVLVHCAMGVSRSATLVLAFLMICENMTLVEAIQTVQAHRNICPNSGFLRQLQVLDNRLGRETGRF
UniProt Q8WVE0: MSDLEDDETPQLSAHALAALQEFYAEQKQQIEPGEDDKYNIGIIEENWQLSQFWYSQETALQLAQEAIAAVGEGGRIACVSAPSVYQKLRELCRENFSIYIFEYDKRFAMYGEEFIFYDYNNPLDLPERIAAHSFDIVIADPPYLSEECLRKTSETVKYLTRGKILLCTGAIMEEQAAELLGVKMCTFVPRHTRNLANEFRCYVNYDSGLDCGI
UniProt A8K855: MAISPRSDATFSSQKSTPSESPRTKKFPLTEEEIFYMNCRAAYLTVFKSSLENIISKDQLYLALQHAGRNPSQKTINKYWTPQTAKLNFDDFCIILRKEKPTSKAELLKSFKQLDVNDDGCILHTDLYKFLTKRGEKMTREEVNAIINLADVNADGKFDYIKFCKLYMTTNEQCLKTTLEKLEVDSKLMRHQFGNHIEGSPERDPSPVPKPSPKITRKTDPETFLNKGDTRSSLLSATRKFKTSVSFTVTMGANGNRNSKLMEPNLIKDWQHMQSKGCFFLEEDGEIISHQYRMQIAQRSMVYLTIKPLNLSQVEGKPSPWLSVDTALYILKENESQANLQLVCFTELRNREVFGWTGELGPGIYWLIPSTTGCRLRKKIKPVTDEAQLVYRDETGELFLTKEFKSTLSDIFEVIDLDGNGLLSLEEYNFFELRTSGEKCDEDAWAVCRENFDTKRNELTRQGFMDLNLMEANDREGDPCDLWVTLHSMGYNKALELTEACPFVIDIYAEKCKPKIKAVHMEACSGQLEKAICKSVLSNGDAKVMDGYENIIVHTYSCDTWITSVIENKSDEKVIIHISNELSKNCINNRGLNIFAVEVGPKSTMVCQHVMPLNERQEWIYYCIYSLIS
UniProt Q96FX2: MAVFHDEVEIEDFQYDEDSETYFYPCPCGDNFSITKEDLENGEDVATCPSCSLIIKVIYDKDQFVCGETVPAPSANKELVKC
UniProt Q9C005, whole entry, looked up: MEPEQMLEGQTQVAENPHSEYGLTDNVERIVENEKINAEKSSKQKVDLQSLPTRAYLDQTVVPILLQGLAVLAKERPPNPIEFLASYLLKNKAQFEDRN
UniProt Q8NBA8: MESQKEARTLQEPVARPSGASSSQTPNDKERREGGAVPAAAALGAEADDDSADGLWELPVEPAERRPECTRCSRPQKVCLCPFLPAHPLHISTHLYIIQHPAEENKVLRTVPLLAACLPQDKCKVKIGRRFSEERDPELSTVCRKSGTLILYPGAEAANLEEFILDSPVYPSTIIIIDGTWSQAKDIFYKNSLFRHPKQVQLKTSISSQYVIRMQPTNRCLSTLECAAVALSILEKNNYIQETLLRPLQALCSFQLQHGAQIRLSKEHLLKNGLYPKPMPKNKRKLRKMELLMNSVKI
UniProt Q86Y13: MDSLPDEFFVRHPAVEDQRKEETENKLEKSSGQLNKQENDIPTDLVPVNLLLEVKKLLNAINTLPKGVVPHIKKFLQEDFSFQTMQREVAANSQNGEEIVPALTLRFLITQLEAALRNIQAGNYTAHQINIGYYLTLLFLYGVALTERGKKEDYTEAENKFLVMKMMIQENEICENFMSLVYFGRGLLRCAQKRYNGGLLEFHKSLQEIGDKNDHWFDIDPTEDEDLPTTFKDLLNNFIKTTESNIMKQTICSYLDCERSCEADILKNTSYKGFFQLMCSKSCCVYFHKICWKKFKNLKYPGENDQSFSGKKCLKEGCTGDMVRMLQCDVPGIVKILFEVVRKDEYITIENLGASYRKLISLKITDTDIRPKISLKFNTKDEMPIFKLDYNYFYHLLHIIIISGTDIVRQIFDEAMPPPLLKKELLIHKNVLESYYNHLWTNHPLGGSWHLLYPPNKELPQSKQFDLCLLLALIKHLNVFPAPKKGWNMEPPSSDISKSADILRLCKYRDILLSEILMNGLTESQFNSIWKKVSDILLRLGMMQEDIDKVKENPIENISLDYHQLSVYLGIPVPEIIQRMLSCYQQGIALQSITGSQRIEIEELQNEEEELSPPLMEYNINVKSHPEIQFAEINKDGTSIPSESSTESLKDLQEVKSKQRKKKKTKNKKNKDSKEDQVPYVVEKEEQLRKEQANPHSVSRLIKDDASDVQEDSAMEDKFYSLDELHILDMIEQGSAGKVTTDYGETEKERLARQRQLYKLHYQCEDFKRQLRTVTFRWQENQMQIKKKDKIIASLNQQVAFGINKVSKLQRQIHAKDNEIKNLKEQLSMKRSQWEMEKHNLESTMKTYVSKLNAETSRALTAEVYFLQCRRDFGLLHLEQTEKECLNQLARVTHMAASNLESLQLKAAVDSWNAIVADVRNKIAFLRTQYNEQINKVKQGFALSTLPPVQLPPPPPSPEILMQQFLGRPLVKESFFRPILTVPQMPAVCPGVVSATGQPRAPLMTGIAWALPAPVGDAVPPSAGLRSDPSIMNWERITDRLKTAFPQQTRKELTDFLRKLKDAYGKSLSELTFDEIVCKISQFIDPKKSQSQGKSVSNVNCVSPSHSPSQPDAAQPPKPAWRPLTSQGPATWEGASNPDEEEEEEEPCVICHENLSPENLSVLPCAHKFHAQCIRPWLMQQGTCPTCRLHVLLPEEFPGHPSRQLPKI
UniProt Q5VUJ9: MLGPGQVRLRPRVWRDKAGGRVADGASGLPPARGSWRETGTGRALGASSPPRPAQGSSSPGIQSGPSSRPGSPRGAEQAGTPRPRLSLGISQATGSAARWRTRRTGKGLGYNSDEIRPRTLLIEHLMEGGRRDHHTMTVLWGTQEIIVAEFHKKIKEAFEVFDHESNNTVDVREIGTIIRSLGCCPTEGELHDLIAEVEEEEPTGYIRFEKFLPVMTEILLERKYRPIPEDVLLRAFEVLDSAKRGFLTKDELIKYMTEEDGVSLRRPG
UniProt Q9NZJ0: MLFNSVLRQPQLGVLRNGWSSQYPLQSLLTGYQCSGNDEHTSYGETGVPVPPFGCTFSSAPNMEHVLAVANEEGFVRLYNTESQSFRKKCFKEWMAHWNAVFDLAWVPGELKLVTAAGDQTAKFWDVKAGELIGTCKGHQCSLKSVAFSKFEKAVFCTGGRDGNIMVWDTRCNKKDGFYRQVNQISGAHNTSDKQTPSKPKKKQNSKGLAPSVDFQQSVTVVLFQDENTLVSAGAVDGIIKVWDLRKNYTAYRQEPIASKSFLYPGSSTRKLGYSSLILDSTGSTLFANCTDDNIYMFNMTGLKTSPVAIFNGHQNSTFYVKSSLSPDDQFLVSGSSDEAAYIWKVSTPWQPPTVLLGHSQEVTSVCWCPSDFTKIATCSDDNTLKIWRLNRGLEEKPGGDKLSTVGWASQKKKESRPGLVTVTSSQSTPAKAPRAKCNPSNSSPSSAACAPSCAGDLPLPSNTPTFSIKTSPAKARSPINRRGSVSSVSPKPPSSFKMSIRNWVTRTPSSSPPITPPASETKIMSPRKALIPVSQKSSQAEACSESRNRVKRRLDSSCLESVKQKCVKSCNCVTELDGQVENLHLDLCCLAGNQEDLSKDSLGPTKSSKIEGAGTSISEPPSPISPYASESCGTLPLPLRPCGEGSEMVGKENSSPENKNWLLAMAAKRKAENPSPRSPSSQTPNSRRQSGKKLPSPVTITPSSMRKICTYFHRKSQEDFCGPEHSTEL
UniProt Q66K89: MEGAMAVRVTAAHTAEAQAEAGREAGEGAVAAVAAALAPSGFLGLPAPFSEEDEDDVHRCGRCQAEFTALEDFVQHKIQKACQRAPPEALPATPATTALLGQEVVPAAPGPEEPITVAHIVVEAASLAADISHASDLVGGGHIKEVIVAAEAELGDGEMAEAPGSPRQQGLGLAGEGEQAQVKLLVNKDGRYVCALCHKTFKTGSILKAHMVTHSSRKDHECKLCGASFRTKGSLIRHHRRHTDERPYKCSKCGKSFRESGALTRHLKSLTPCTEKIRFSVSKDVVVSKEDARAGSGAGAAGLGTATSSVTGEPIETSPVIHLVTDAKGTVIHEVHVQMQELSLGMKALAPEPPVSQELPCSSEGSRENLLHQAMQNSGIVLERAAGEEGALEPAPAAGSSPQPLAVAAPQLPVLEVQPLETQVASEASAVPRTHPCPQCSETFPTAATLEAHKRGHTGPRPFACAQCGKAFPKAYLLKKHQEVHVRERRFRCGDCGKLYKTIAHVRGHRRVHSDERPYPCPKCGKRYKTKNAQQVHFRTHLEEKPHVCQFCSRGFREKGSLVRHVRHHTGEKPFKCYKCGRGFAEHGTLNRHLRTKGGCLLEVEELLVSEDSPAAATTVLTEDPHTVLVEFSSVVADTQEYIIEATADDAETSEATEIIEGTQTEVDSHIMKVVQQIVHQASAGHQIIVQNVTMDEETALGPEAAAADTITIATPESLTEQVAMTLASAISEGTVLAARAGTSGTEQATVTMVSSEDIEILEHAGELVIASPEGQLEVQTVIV
UniProt Q92784, whole entry, looked up: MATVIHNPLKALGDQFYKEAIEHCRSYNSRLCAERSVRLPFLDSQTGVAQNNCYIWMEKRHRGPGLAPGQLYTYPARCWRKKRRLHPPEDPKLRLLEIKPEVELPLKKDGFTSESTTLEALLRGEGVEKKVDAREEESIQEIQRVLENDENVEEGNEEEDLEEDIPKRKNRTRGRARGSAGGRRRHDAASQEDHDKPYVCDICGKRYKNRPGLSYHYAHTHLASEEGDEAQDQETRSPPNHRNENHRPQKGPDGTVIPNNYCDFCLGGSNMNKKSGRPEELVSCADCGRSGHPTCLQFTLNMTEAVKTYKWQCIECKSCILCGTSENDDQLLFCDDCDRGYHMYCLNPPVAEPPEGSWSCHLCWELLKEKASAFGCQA
UniProt Q9Y295: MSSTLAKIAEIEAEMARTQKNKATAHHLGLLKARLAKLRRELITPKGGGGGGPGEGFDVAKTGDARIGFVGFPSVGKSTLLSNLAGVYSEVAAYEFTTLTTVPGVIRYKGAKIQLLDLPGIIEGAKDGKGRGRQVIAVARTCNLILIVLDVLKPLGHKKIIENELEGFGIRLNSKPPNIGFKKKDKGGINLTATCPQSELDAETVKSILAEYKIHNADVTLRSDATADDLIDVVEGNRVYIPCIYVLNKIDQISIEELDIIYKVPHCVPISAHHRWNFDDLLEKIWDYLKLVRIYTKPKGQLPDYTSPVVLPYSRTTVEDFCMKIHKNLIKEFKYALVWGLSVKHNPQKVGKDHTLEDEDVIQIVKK
UniProt Q14195, whole entry, looked up: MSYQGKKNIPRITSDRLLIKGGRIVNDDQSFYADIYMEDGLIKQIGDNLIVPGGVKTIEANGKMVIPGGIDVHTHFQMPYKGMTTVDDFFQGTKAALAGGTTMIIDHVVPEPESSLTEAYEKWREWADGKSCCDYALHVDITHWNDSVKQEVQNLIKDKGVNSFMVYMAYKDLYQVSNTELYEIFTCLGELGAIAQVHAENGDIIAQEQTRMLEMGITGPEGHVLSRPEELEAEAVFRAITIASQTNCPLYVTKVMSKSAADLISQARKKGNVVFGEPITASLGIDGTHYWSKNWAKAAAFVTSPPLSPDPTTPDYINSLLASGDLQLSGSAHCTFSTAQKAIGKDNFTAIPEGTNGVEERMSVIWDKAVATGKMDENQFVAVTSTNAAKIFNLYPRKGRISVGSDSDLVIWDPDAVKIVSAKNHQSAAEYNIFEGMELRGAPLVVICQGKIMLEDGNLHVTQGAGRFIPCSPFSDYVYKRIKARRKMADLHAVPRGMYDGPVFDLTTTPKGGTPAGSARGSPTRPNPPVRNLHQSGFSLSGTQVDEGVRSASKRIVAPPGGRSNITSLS
UniProt Q8TCX1: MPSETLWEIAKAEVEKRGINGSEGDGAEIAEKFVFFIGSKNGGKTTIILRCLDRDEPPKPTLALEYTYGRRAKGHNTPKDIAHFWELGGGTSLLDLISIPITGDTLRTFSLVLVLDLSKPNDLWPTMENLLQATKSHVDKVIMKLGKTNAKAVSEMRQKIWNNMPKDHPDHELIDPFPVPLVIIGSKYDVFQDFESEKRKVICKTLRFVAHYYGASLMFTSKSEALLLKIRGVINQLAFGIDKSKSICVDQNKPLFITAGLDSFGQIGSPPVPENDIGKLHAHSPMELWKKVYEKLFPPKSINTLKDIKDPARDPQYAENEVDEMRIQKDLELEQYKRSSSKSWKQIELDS

[2] = compound: C1=CC(=CC=C1C2=NC3=C(N2)C=C(C=C3)C(=O)N)OC4=CC=C(C=C4)Cl
Procedure, shortened: as §1

[3] = compound: C1=CC2=NC=CN=C2C=C1/C=C/3\C(=O)NC(=O)S3
Procedure, shortened: as §1

[4] = compound: C1=CC=C(C=C1)C2=NC(=C(N2)C3=CC=NC=C3)C4=CC(=C(C=C4)Cl)O
Procedure, shortened: as §1

[5] = compound: C1CCN(C1)C(=O)NC2=CC=CC(=C2)NC3=NC=C(C(=N3)NCCC4=CN=CN4)Br
Procedure, shortened: as §1

[6] = compound: C1CN(CCC1(CC2=CC=C(C=C2)Cl)N)C3=NC=NC4=C3C=CN4
Procedure, shortened: as §1

[7] = compound: C1COCCN1CCN2C3=CC=CC=C3N=C2NC(=O)C4=CC(=CC=C4)[N+](=O)[O-] [IRAK-1-4 Inhibitor I]
Procedure, shortened: as §1

[8] = compound: C/C(=N\NC(=O)C1=CC(=CC=C1)S(=O)(=O)N2CCOCC2)/C3=C(C=CC(=C3)Cl)O
Procedure, shortened: as §1

[9] = compound: C1=CC2=C(C=CC(=C2)/C=C\3/C(=O)NC(=NCC4=CC=CS4)S3)N=C1
Procedure, shortened: as §1

[10] = compound: C1=CC=C2C(=C1)C3=NNC4=CC=CC(=C43)C2=O
Procedure, shortened: as §1

Measured: log2 fold change

EHHADH (UniProt Q08426)
inactive: [1] -0.05 | [2] 0.08 | [3] -0.029 | [4] 0.007 | [5] 0.045 | [6] -0.106 | [7] -0.09

DUSP19 (UniProt Q8WTR2)
inactive: [1] 0.08 | [2] 0.213 | [3] -0.028 | [4] 0.019 | [7] 0.048

DRAM2 (UniProt Q6UX65)
inactive: [3] -0.092

DSTYK (UniProt Q6XUX3)
inactive: [1] -0.162 | [2] -0.124 | [4] -0.246 | [7] 0.09

DUSP22 isoform 2 (UniProt Q9NRW4)
inactive: [1] -0.016 | [8] 0.157 | [2] 0.007 | [9] 0.075 | [3] 0.051 | [4] 0.035 | [10] 0.143 | [7] -0.028

DYNLT3 (UniProt P51808)
inactive: [1] -0.029 | [2] -0.162

DUSP13 isoform 4 (UniProt Q9UII6)
inactive: [1] 0.384 | [2] -0.12

EEF1AKMT1 (UniProt Q8WVE0)
inactive: [1] -0.017 | [2] 0.134 | [3] 0.07 | [4] 0.087 | [5] -0.051 | [6] 0.426 | [7] -0.042

EFCAB7 (UniProt A8K855)
inactive: [4] 0.021 | [7] -0.013

DPH3 (UniProt Q96FX2)
inactive: [8] 0.114 | [9] 0.065 | [3] -0.092 | [10] -0.08 | [5] 0.057 | [6] 0.026

EGLN2 (UniProt Q96KS0)
inactive: [8] -0.124 | [9] 0.046 | [4] -0.069 | [10] -0.074 | [5] 0.104 | [6] -0.084 | [7] -0.121

DPM3 isoform 2 (UniProt Q9P2X0)
inactive: [1] 0.005 | [2] -0.105 | [3] -0.024 | [4] -0.087 | [7] -0.072

DPY30 (UniProt Q9C005)
inactive: [1] 0.079 | [8] -0.073 | [2] -0.113 | [9] -0.03 | [4] -0.025 | [10] -0.076 | [5] -0.026 | [6] -0.039 | [7] -0.111

DSG3 (UniProt P32926)
inactive: [3] -0.008 | [4] -0.366 | [7] -0.028

EEF1D isoform 3 (UniProt P29692)
inactive: [1] -0.013 | [2] -0.413 | [3] 0.137

DTWD2 (UniProt Q8NBA8)
inactive: [1] 0.022 | [2] -0.021 | [3] 0.029 | [4] 0.016 | [7] 0.032

EFCAB3 (UniProt Q8N7B9)
inactive: [1] -0.046 | [2] -0.148

EID1 (UniProt Q9Y6B2)
inactive: [1] 0.089 | [2] -0.172 | [4] 0.096 | [5] 0.064 | [6] 0.091 | [7] 0.044

EGFL7 (UniProt Q9UHF1)
inactive: [8] 0.098 | [9] -0.057 | [10] 0.073

DRAP1 (UniProt E9PQX9)
inactive: [8] 0.026 | [9] 0.023 | [3] -0.051 | [10] -0.052 | [5] -0.052 | [6] -0.308

EDEM2 (UniProt Q9BV94)
inactive: [1] 0.043 | [8] 0.059 | [2] 0.054 | [9] 0.066 | [4] -0.033 | [10] -0.132 | [5] 0.026 | [6] 0.031 | [7] 0.007

DZIP3 (UniProt Q86Y13)
inactive: [1] 0.215 | [2] -0.055

Reprinted at random: three entries already listed, in no set order.
DRAP1 (UniProt E9PQX9)
inactive: [8] 0.026 | [9] 0.023 | [3] -0.051 | [10] -0.052 | [5] -0.052 | [6] -0.308

EDEM2 (UniProt Q9BV94)
inactive: [1] 0.043 | [8] 0.059 | [2] 0.054 | [9] 0.066 | [4] -0.033 | [10] -0.132 | [5] 0.026 | [6] 0.031 | [7] 0.007

EGFL7 (UniProt Q9UHF1)
inactive: [8] 0.098 | [9] -0.057 | [10] 0.073

Remaining list, next part

DUT (UniProt H0YMP1)
inactive: [3] -0.163

DSCAML1 (UniProt Q8TD84)
inactive: [3] -0.031 | [4] 0.064 | [7] 0.003

EEF2KMT (UniProt Q96G04)
inactive: [1] 0.078 | [8] 0.026 | [2] -0.015 | [9] 0.055 | [4] 0.082 | [10] 0 | [5] -0.076 | [6] 0.053 | [7] -0.016

DST isoform 3 (UniProt Q03001)
inactive: [1] 0.005 | [2] 0.181 | [3] -0.085 | [5] -0.034 | [6] -0.043

EFCAB2 isoform 2 (UniProt Q5VUJ9)
inactive: [1] -0.025 | [2] -0.122 | [4] -0.022 | [5] 0.036 | [6] 0.051 | [7] 0.033

DUSP14 (UniProt O95147)
inactive: [1] 0.062 | [8] -0.062 | [2] -0.249 | [9] 0.085 | [10] -0.116 | [5] -0.092 | [6] 0.091

DPY19L3 (UniProt Q6ZPD9)
inactive: [1] -0.131 | [8] 0.007 | [2] -0.097 | [9] 0.101 | [3] 0.211 | [10] -0.2 | [5] 0.005 | [6] 0.008

DTL (UniProt Q9NZJ0)
inactive: [1] 0.106 | [8] -0.053 | [2] 0.012 | [9] 0.067 | [3] -0.029 | [4] -0.002 | [10] -0.072 | [7] 0.006

E4F1 (UniProt Q66K89)
inactive: [1] -0.076 | [8] 0.169 | [2] -0.1 | [9] -0.019 | [3] 0.083 | [4] 0.076 | [10] 0.022 | [7] 0.064

DYNC1I1 (UniProt O14576)
inactive: [1] -0.047 | [8] 0.392 | [2] 0.075 | [9] 0.251 | [10] -0.029 | [5] -0.014 | [6] -0.054

DTX2 (UniProt Q86UW9)
inactive: [1] 0.05 | [2] 0.055 | [3] -0.008

DYRK1A isoform 2 (UniProt Q13627)
inactive: [1] -0.064 | [2] -0.476 | [3] 0.247 | [4] 0.069 | [7] -0.595

DPF3 isoform 3 (UniProt Q92784)
inactive: [3] -0.142

DRG1 (UniProt Q9Y295)
inactive: [1] -0.04 | [8] 0.014 | [2] -0.005 | [9] -0.009 | [3] -0.004 | [4] 0.014 | [10] 0.003 | [5] -0.011 | [6] -0.011 | [7] -0.006

ECM1 isoform 2 (UniProt Q16610)
inactive: [4] -0.003 | [7] -0.123

DPYSL3 isoform 2 (UniProt Q14195)
inactive: [5] 0.107 | [6] -0.264

DYNC2LI1 (UniProt Q8TCX1)
inactive: [8] 0.01 | [9] 0.036 | [3] 0.097 | [4] 0.036 | [10] 0.006 | [7] 0.068
